Reference: paper PMC9563141
Results are given in words; binding and its absence hold for the method and conditions named. In cells and extracts the contact can be indirect. Some results given as binding are weak or reduced against the parent protein; the word gives no strength. Each block holds one molecule with its values, some of them ahead of it.

Chains of the proteins cited; added tags and fusions are not shown.
UniProt Q14457: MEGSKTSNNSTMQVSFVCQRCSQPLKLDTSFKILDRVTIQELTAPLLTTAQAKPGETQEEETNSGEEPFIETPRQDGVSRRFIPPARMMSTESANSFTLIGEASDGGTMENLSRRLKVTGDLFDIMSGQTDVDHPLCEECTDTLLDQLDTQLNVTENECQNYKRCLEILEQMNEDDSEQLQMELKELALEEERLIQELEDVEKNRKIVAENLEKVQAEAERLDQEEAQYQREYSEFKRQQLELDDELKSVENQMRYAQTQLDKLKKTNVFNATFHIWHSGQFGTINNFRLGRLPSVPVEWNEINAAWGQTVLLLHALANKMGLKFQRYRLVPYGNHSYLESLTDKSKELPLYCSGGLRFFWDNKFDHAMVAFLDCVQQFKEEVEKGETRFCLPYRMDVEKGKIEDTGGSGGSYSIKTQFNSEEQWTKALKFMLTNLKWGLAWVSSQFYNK
UniProt Q00987: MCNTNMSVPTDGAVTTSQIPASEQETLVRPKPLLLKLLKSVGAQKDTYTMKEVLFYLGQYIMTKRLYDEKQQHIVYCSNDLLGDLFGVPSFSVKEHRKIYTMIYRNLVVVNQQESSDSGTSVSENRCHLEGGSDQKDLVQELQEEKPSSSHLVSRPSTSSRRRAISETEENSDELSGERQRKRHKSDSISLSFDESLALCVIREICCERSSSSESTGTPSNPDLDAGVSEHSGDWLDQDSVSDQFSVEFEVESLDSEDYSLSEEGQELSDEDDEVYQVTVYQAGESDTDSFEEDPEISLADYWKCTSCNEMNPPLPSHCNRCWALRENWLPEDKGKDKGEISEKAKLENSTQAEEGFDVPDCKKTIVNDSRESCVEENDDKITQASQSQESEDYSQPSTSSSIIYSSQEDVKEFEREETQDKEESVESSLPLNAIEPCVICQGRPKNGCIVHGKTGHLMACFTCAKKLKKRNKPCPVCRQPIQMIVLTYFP

Columns and labels:
Flag-Beclin 1 (FL) = Flag-Beclin 1 (FL) (UniProt Q14457); assay: co-IP; 293FT cells co-transfected with Flag-Beclin 1 (FL) or a Beclin 1 deletion construct and MDM2, MDMX or RB; total cell lysates, IP-western
[1] = biological target: Beclin 1 (human (endogenous in HCT116)) (UniProt Q14457); assay: co-IP; endogenous proteins of HCT116 or HCT116 p53-/- cells; precipitated with an antibody specific for Beclin 1 or for MDMX, IgG control; western blot
[2] = biological target: T1, MDMX (human (endogenous in HCT116)) (UniProt O15151); assay: as above
T1 sequence: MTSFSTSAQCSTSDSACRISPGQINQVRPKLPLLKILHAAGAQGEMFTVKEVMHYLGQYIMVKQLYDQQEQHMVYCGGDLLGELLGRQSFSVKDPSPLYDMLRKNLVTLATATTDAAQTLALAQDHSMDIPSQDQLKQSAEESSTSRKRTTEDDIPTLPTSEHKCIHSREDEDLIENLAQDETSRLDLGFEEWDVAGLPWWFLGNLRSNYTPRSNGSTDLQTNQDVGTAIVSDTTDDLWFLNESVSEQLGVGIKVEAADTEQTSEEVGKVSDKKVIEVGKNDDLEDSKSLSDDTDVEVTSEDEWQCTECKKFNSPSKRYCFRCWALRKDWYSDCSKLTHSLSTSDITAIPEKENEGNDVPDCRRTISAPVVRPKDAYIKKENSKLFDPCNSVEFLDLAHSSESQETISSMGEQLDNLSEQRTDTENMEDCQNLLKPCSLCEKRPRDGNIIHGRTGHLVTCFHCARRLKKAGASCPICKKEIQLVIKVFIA

Molecule: MDM2 (transfected) (from UniProt Q00987 1-491)
binding (Flag-Beclin 1 (FL)): binds

Molecule: MDM2 (the double mouse minute 2 homolog) (from UniProt Q00987 1-491)
binding [1]: binds

Continued, values first:

binding [2]: binds
B1: retinoblastoma protein (RB) (protein, UniProt P06400 1-928)
chain: MPPKTPRKTAATAAAAAAEPPAPPPPPPPEEDPEQDSGPEDLPLVRLEFEETEEPDFTALCQKLKIPDHVRERAWLTWEKVSSVDGVLGGYIQKKKELWGICIFIAAVDLDEMSFTFTELQKNIEISVHKFFNLLKEIDTSTKVDNAMSRLLKKYDVLFALFSKLERTCELIYLTQPSSSISTEINSALVLKVSWITFLLAKGEVLQMEDDLVISFQLMLCVLDYFIKLSPPMLLKEPYKTAVIPINGSPRTPRRGQNRSARIAKQLENDTRIIEVLCKEHECNIDEVKNVYFKNFIPFMNSLGLVTSNGLPEVENLSKRYEEIYLKNKDLDARLFLDHDKTLQTDSIDSFETQRTPRKSNLDEEVNVIPPHTPVRTVMNTIQQLMMILNSASDQPSENLISYFNNCTVNPKESILKRVKDIGYIFKEKFAKAVGQGCVEIGSQRYKLGVRLYYRVMESMLKSEEERLSIQNFSKLLNDNIFHMSLLACALEVVMATYSRSTSQNLDSGTDLSFPWILNVLNLKAFDFYKVIESFIKAEGNLTREMIKHLERCEHRIMESLAWLSDSPLFDLIKQSKDREGPTDHLESACPLNLPLQNNHTAADMYLSPVRSPKKKGSTTRVNSTANAETQATSAFQTQKPLKSTSLSLFYKKVYRLAYLRLNTLCERLLSEHPELEHIIWTLFQHTLQNEYELMRDRHLDQIMMCSMYGICKVKNIDLKFKIIVTAYKDLPHAVQETFKRVLIKEEEYDSIIVFYNSVFMQRLKTNILQYASTRPPTLSPIPHIPRSPYKFPSSPLRIPGGNIYISPLKSPYKISEGLPTPTKMTPRSRILVSIGESFGTSEKFQKINQMVCNSDRVLKRSAEGSNPPKPLKKLRFDIEGSDEADGSKHLPGESKFQQKLAEMTSTRTRMQKQKMNDSMDTSNKEEK

binding [1]: binds
B2: MDMX (protein, UniProt O15151 1-490)
chain: T1 sequence

binding (Flag-Beclin 1 (FL)): binds
B3: MDMX (transfected) (protein, UniProt O15151 1-490)
chain: T1 sequence
